Experiment [1] deals with receptor for advanced glycation endproducts (RAGE), human, endogenous in human pulmonary artery smooth muscle cells (HPASMC) (human) (UniProt Q15109). In words: RAGE immunoprecipitation from naive HPASMC treated with apoptotic conditioned media, immunoblot. (In general: In western blotting, separated proteins are transferred to a membrane and probed.)
For experiment [2] the target is unchanged. In words: RAGE immunoprecipitation from naive HPASMC treated with conditioned media, immunoblot.

Protein sequences, listed by entry. Tags and fused reporters are not part of them. Residues count along the entry.
UniProt Q15109, residues 23-404: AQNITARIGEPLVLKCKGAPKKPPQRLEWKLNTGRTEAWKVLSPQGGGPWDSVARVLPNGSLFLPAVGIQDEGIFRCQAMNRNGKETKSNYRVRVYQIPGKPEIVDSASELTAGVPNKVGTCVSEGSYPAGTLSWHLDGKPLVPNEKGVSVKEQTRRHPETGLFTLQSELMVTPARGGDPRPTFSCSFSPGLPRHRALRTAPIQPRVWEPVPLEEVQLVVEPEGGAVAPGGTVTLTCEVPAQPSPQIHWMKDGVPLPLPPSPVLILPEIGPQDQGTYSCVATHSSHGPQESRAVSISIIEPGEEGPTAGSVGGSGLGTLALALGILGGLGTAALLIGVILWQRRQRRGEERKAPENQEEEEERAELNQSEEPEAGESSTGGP

No constants are given. Whether binding was seen depends on the method and setting. Some results given as binding are weak or reduced against the parent protein; the word gives no strength.

B1: inositol monophosphatase 1 (IMPA1), human, endogenous in human cells (enzyme, UniProt P29218 1-277, looked up)
chain: MADPWQECMDYAVTLARQAGEVVCEAIKNEMNVMLKSSPVDLVTATDQKVEKMLISSIKEKYPSHSFIGEESVAAGEKSILTDNPTWIIDPIDGTTNFVHRFPFVAVSIGFAVNKKIEFGVVYSCVEGKMYTARKGKGAFCNGQKLQVSQQEDITKSLLVTELGSSRTPETVRMVLSNMEKLFCIPVHGIRSVGTAAVNMCLVATGGADAYYEMGIHCWDVAGAGIIVTEAGGVLMDVTGGPFDLMSRRVIAANNRILAERIAKEIQVIPLQRDDED
As to B1, the binding result in experiment [1] and in experiment [2] was “binds” throughout.
